PubChem BioAssay AID743454 | Peter MacCallum Cancer Centre, 2014

Purpose: 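Genes whose loss kills vorinostat-resistant colon cancer cells under vorinostat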 (primary screen)
Cell system: human HCT116-VR colon cancer cells, selected for vorinostat resistance
Knock-down reagent: siRNA pool against human genes, 40 nM siRNA pool
Duration: vorinostat for 24 h, read-out about 72 h after transfection
Conditions: vorinostat at 2.5 µM final
Read-out: 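Two measures, CellTiter-Fluor viability and luminescent caspase 3/7 activity, each as fold change against same-plate mock wells, mean of duplicates, then screen-wide robust z-score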
Direction: viability robust z-score: higher = more viable cells than screen typical; caspase robust z-score: higher = more caspase 3/7 activity than screen typical
Rule for the call: 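Hits are knock-downs in viability class RV1/RV2 or caspase class CA1/CA2, excluding ones that killed cells in the no-drug cell-count arm; hits then retested with single siRNAs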
Here is an unselected part of about 18,000 reagents. Of all reagents, 450 (2.5%) were called active. 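Single biological run; no consistent viability z cut-off exists, so the class columns, not z-scores, define the calls.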 Entries without a mark were called inactive. Reagent sequences are not shown.

Target gene	viability hit class	caspase hit class	viability robust z-score	caspase robust z-score
TES (GeneID 26136)	no change	no change	-1.12	-0.84
NAAA (GeneID 27163)	no change	no change	1.02	0.01
KLHL1 (GeneID 57626)	no change	no change	0.43	5.11
EFNA3 (GeneID 1944)	no change	no change	0.03	-0.56
SHANK2 (GeneID 22941)	no change	no change	-0.66	0.01
TNFRSF11B (GeneID 4982)	no change	no change	-1.29	2.85
MAN1C1 (GeneID 57134)	no change	no change	0.05	0.93
AEBP1 (GeneID 165)	no change	no change	0.84	-0.24
NKX2-1 (GeneID 7080)	RV2 (reduced viability) (active)	CA2 (caspase activation)	-2.95	6.64
IL5 (GeneID 3567)	no change	no change	0.08	-0.64
H1-7 (GeneID 341567)	no change	no change	0.43	0.47
IRS4 (GeneID 8471)	no change	no change	0.82	0.12
OR51Q1 (GeneID 390061)	no change	no change	0.04	1.1
LIPH (GeneID 200879)	no change	no change	1.62	0.04
PTPRK (GeneID 5796)	no change	no change	2.82	1.8
IFIT5 (GeneID 24138)	no change	no change	0.5	0.15
LARP4B (GeneID 23185)	no change	no change	-0.08	0.22
OR5M9 (GeneID 390162)	no change	no change	-1.36	2.27
PHB2 (GeneID 11331)	no change	no change	-2.19	1.01
RPL34 (GeneID 6164)	no change	no change	-4.34	-1
TEX14 (GeneID 56155)	no change	no change	-0.38	1.14
TRIM72 (GeneID 493829)	no change	no change	-1.19	2.98
ENOSF1 (GeneID 55556)	no change	no change	0.57	-0.12
USP20 (GeneID 10868)	no change	no change	0.26	-0.06

Hits, among the entries above:
Target gene	viability hit class	caspase hit class	viability robust z-score	caspase robust z-score
NKX2-1 (GeneID 7080)	RV2 (reduced viability) (active)	CA2 (caspase activation)	-2.95	6.64

Continued:
Target gene	viability hit class	caspase hit class	viability robust z-score	caspase robust z-score
SCAMP4 (GeneID 113178)	no change	no change	0.82	2.5
EBPL (GeneID 84650)	no change	no change	1.22	-0.86
GALNT16 (GeneID 57452)	no change	no change	-0.62	1.29
PTPRF (GeneID 5792)	no change	no change	0.46	-0.25
ACKR4 (GeneID 51554)	no change	no change	0.3	-1.09
NDFIP2 (GeneID 54602)	no change	no change	1.07	-0.56
KLKB1 (GeneID 3818)	no change	no change	0.42	-0.72
SPPL3 (GeneID 121665)	no change	no change	-0.13	4.78
CKAP2L (GeneID 150468)	no change	no change	0.44	0.64
THAP5 (GeneID 168451)	no change	no change	0.72	0
MAFF (GeneID 23764)	no change	no change	1.49	-0.06
DISC1 (GeneID 27185)	no change	no change	-0.82	0.32
RLN2 (GeneID 6019)	no change	no change	-0.02	-0.5
N4BP2L1 (GeneID 90634)	no change	no change	0.05	0.84
BPIFB2 (GeneID 80341)	no change	no change	0.82	0.86
ZNF14 (GeneID 7561)	no change	no change	-1.21	-0.44
RASA4 (GeneID 10156)	no change	no change	-0.72	0.44
QRSL1 (GeneID 55278)	no change	no change	-0.44	-1.27
PREX1 (GeneID 57580)	no change	no change	0.92	0.14
C4orf17 (GeneID 84103)	no change	no change	0.76	1.14
RAD50 (GeneID 10111)	no change	no change	0.54	0.62
NOP16 (GeneID 51491)	no change	no change	-2.53	0.22
PIMREG (GeneID 54478)	no change	no change	1.05	-0.27
ZNF626 (GeneID 199777)	no change	no change	0.51	-0.78
TMCO6 (GeneID 55374)	no change	no change	-0.5	0.46
PCDH12 (GeneID 51294)	no change	no change	0.34	1.48
GTF2IRD1 (GeneID 9569)	no change	no change	-0.76	-1.02
ITPR1 (GeneID 3708)	no change	no change	-0.64	3.4
CFAP251 (GeneID 144406)	no change	no change	-0.09	-0.68
MDP1 (GeneID 145553)	no change	no change	0.48	-0.02
PCDHB2 (GeneID 56133)	no change	no change	0.89	-0.52
IFNG (GeneID 3458)	no change	no change	0.05	1.31
TNFSF18 (GeneID 8995)	no change	no change	0.88	0.22
